# Results deposited as PubChem BioAssay AID1259308 (NCATS, 2017).
# Purpose: 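Candidate targets for better recombinant protein yield in mammalian cells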 (primary screen)
# Cell system: human HEK293 embryonic kidney cells stably expressing firefly luciferase (HEK-CMV-Luc2-Hygro)
# Knock-down reagent: single siRNA against human genes, 0.8 pmol siRNA per well
# Timing: 72 h
# Measured: 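Luciferase light (ONE-Glo) measured on one replicate plate set and viability (CellTiter-Glo) on the other, scaled to a negative control siRNA, with robust z-scores and luciferase per cell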
# Direction: total luciferase, z-score and total luciferase, % of control: higher = more reporter protein produced; luciferase per cell, z-score: higher = more reporter output per viable cell; viable cells, % of control: higher = more viable cells
# Active means: 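Active when the median/MAD z-score for overall luciferase is greater than 3; a gene was taken forward for validation with new siRNAs if at least two of its three siRNAs passed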
# Meaning of the calls: active = raised luciferase; inactive = no rise
# The whole screen tested about 59,000 reagents; shown is an unselected part. About 1,510 of all reagents (2.6%) count as active. 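Calls use total luciferase alone and ignore viability, so some active siRNAs may act by altering cell number.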
"total luciferase, z-score","total luciferase, % of control","luciferase per cell, z-score","viable cells, % of control",Outcome,gene symbol,PubChem SID
-0.0051,81.8,-0.14,94.8,inactive,FIRRM,SID160744205
0.05,82.9,-0.166,96.7,inactive,FIRRM,SID160744206
-0.903,63.9,-1.42,104,inactive,FIRRM,SID160744207
0.485,91.5,0.0707,100,inactive,WFDC10A,SID160730633
-0.479,72.4,-0.1,83,inactive,WFDC10A,SID160757912
0.658,95,1.36,74.2,inactive,WFDC10A,SID160757913
-1.74,47.4,-0.484,60.1,inactive,OR5B12,SID160766434
1.7,116,1.15,95.4,inactive,OR5B12,SID160766435
0.295,87.7,0.313,90.3,inactive,OR5B12,SID160766436
-1.36,54.9,1.86,37.5,inactive,STX11,SID160720583
-3.75,7.37,-9.36,97,inactive,STX11,SID160720584
0.563,93.1,0.203,98.6,inactive,STX11,SID160720585
0.265,87.2,0.631,82.5,inactive,RPS2P12,SID160726200
0.768,97.2,0.412,97.4,inactive,RPS2P12,SID160726202
-0.233,77.2,1.17,63.5,inactive,RPS2P12,SID160726203
-0.846,65.1,-0.708,87.6,inactive,ZNF3,SID160718984
2.21,126,1.68,90.3,inactive,ZNF3,SID160724111
0.622,94.3,0.653,88.7,inactive,ZNF3,SID160731883
-0.665,68.7,-0.549,88.7,inactive,KLHL7,SID160744708
2.55,133,2.86,69.8,inactive,KLHL7,SID160744709
-1.09,60.3,-1.21,92.7,inactive,KLHL7,SID160744711
-0.0441,81,-0.245,96.6,inactive,NDNF,SID160734941
-0.709,67.8,-0.414,84.5,inactive,NDNF,SID160749023
-0.895,64.1,-1.43,104,inactive,NDNF,SID160749024
